Patent US5776685A, “Protein kinase C assay” (Joslin Diabetes Center, priority 1996, dated 1998)

Tested on: bovine PKC alpha
Assay: PKC catalytic activity in vitro (phosphorylation of [ser25]PKC19-31 in detergent cell extracts)
Format: biochemical
Procedure: FIG. 4 is a graph which compares PKC mutant and wild type catalytic activities in vitro. […] Catalytic activity was stimulated by combinations of phosphatidylserine (PS), the phorbol ester PMA and calcium ions (Ca^2+). PS, open; PMA+PS, solid; Ca^2+ +PS, diagonally striped.
Cell lysis. About 6×10^8 expressing cells were washed in PBS and were resuspended in 1 ml lysis buffer containing 1% Triton X100, 50 mM Hepes pH 7.4, 15-mM NaC1, 5 mM EDTA, 5 mM EGTA, 10 μg/ml pepstatin, 40 μg/ml leupeptin, 10 μg/ml aprotinin and 200 μg/ml PMSF. Cell suspensions mixed with the same volume of acid washed glass beads (450-500 μm) were lysed mechanically by six 30 second vortexing steps interrupted by cooling on ice for at least 30 second in 50 ml screw cap polypropylene tubes. The lysate was cleared by 4,000 g centrifugation for 15 minutes at 4 degrees C and stored at […] for up to several weeks.
PKC catalytic activity. […] Phosphatidylserine in chloroform, with or without PMA was evaporated under N2 to dryness, resuspended in 20 mM Tris pH 7.5, mixed and sonicated at 4 degrees C for 45 seconds before use. To terminate the reaction the sample was placed on phosphocellulose paper (Whatman P81) which was repeatedly washed in 75 mM phosphoric acid. Bound radioactivity was determined by liquid scintillation spectroscopy.

CN[C@@H]1C[C@H]2O[C@@](C)([C@@H]1OC)n1c3ccccc3c3c4c(c5c6ccccc6n2c5c31)C(=O)NC4 [staurosporine, reference compound]
inhibition of PKC alpha catalytic activity: efficiently inhibited
